According to article PMC12089419:
These are yes or no findings as the source states them, for the method shown. In cells and extracts the contact can be indirect. Here binding means that the protein was enriched with, or labelled near, the bait; the list need not be complete. Tags and fused reporters may be left off the sequences shown.

Biological target: T1, Myc-DACH1-FL (human) (UniProt Q9UI36)
T1 sequence: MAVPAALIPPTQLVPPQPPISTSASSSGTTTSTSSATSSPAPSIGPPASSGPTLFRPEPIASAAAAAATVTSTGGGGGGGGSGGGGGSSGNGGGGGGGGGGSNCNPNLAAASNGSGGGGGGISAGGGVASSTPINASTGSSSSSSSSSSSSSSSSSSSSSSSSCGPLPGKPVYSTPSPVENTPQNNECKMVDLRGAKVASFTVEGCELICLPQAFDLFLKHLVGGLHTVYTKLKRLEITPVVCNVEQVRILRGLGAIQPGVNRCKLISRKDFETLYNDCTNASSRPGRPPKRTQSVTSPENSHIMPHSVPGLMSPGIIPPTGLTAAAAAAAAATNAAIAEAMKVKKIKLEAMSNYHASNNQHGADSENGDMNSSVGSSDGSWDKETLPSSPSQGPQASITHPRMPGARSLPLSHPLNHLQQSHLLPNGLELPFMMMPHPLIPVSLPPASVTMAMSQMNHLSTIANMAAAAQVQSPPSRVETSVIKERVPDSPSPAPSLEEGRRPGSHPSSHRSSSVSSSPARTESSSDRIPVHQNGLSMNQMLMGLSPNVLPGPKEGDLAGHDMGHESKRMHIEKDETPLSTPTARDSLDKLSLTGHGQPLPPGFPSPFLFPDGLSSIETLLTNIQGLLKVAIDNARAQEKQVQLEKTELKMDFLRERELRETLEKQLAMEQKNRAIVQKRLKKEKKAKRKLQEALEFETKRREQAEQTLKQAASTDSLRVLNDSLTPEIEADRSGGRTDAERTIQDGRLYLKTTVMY
Assay: affinity purification with mass spectrometry; Myc-DACH1 stably expressed in HCT8 cells; whole cell extracts purified with anti-Myc affinity beads, then mass spectrometry

binding: binds
B1: E3 ubiquitin-protein ligase UHRF1 (endogenous) (enzyme, UniProt Q96T88 1-793)
chain: MWIQVRTMDGRQTHTVDSLSRLTKVEELRRKIQELFHVEPGLQRLFYRGKQMEDGHTLFDYEVRLNDTIQLLVRQSLVLPHSTKERDSELSDTDSGCCLGQSESDKSSTHGEAAAETDSRPADEDMWDETELGLYKVNEYVDARDTNMGAWFEAQVVRVTRKAPSRDEPCSSTSRPALEEDVIYHVKYDDYPENGVVQMNSRDVRARARTIIKWQDLEVGQVVMLNYNPDNPKERGFWYDAEISRKRETRTARELYANVVLGDDSLNDCRIIFVDEVFKIERPGEGSPMVDNPMRRKSGPSCKHCKDDVNRLCRVCACHLCGGRQDPDKQLMCDECDMAFHIYCLDPPLSSVPSEDEWYCPECRNDASEVVLAGERLRESKKKAKMASATSSSQRDWGKGMACVGRTKECTIVPSNHYGPIPGIPVGTMWRFRVQVSESGVHRPHVAGIHGRSNDGAYSLVLAGGYEDDVDHGNFFTYTGSGGRDLSGNKRTAEQSCDQKLTNTNRALALNCFAPINDQEGAEAKDWRSGKPVRVVRNVKGGKNSKYAPAEGNRYDGIYKVVKYWPEKGKSGFLVWRYLLRRDDDEPGPWTKEGKDRIKKLGLTMQYPEGYLEALANREREKENSKREEEEQQEGGFASPRTGKGKWKRKSAGGGPSRAGSPRRTSKKTKVEPYSLTAQQSSLIREDKSNAKLWNEVLASLKDRPASGSPFQLFLSKVEETFQCICCQELVFRPITTVCQHNVCKDCLDRSFRAQVFSCPACRYDLGRSYAMQVNQPLQTVLNQLFPGYGNGR
